Data as given in the supplement of paper PMC7024190.
The list shows a part of the results. Single values are uncertain here, since repeats match poorly.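 The cells were human embryonic kidney cells carrying a Renilla luciferase gene, driven by the HSV-TK promoter, on a plasmid put in briefly by transfection. This is the first-round screen of about ten thousand compounds, looking for ones that raise reporter output.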

tested on: HEK 293FT; test: log relative Renilla luciferase luminescence (reporter expression vs reference, reference not stated) (log (base not stated)); higher = higher recombinant reporter expression; conditions: 10 µM; time after transfection 48 h
Procedure: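 HEK 293FT cells transiently transfected with pRL-TK (Renilla luciferase) were treated with compounds at 10 uM and luminescence was read about 42 h later. Values are log relative Renilla luminescence (log base and reference not stated). Single-pass screen; 2080 natural products library.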

Row | SMILES | log
1 | C=C1C(=O)O[C@@H]2/C=C(/C)[C@@]3(O)C=C[C@@](C)(C[C@@H](OC(=O)C(C)C)[C@@H]12)O3 [Tagitinin F] | -0.0748
2 | CC1(C)CC[C@]2(C)CC=C3[C@]4(C)CC[C@H]5C(C)(C)C(=O)CC[C@]5(C)[C@H]4CC[C@@]3(C)[C@@H]2C1 [Taraxerone] | 0.0364
3 | O=C(O)C(O)C(O)c1ccc(O)cc1 (stereo not given) [2,3-dihydroxy-3-(4-hydroxyphenyl)propanoic acid] | -0.537
4 | COc1ccc2c(cc3c4c(cc5c(c42)OCO5)CCN3C)c1OC [Dehydrocrebanine] | -0.0825
5 | C[C@H](O)C[C@H]1CCCCN1C [(+)-N-Methylallosedridine] | 0.0106
6 | COc1ccc([C@@]23Oc4cc(OC)cc(OC)c4[C@]2(O)[C@H](O)[C@H](C(=O)N(C)C)[C@H]3c2ccccc2)cc1 [Rocaglamide] | -1.61
7 | CC1(C(=O)O)CCCC2(C)c3ccc(O)cc3CCC12 (stereo not given) [13-Hydroxy-8,11,13-podocarpatrien-18-oic acid] | -0.129
8 | C[C@@H]1[C@H]2COC(=O)[C@H](CO)[C@H]2C[C@@H]1O [4-Epialyxialactone] | -0.0445
9 | CC(=O)Oc1cc(OC(C)=O)c2c(=O)cc(-c3ccccc3)oc2c1 [5,7-Diacetoxyflavone] | 0.0322
10 | COc1cc(-c2oc3cc(OC)c(OC)c(OC)c3c(=O)c2OC)cc(OC)c1OC [3',4',5',3,5,6,7-Heptamethoxyflavone] | 0.0076
11 | C=C(C)[C@@H]1CC[C@@H]2C(=CC[C@]3(C)/C(=C(/C)CC/C=C(/C)C(=O)O)CC[C@@]23C)[C@@]1(C)CCC(=O)O [Kadsuracoccinic acid A] | -0.0617
12 | C=C1CC[C@H]2[C@@](C)(CCC[C@@]2(C)C(=O)O[C@@H]2O[C@H](CO)[C@@H](O)[C@H](O)[C@H]2O)[C@@H]1CCC1=CCOC1=O | -0.0462
13 | CC(=O)O[C@@H](CC1=C(O)C(=O)OC1)[C@]1(C)[C@H]2CCC=C(C)[C@]2(C)[C@@H](OC(=O)c2cccnc2)[C@H](OC(=O)c2ccccc2)[C@]1(C)O [Scutebata B] | 0.0279
14 | C=C1CC[C@@H]2[C@](C)(CCC[C@]2(C)C(=O)O)[C@H]1CCC1=CCOC1=O [Pinusolidic acid] | 0.132
15 | C[C@H](C[C@@H](O)[C@@H]1OC1(C)C)[C@@H]1CC[C@]2(C)C3=CC[C@H]4C(C)(C)C(=O)CC[C@]4(C)[C@H]3CC[C@@]12C [Niloticin] | 0.0381
16 | C=C1CC[C@@H]2[C@](C)(CCC[C@]2(C)C(=O)O)[C@H]1CC[C@H](C)CCO [Imbricatolic acid] | 0.0308
17 | COc1c(OC)c(OC)c2oc(=O)ccc2c1OC [5,6,7,8-Tetramethoxycoumarin] | -0.159
18 | COc1ccc(O)c(C(C)=O)c1 [2'-Hydroxy-5'-methoxyacetophenone] | -0.035
19 | CC(C)=CCc1c(O[C@@H]2O[C@H](CO)[C@@H](O)[C@H](O)[C@H]2O)cc(O)c2c1O[C@H](c1ccc(O)cc1)[C@@H](O)C2=O [Phellamurin] | -0.179
20 | C=C[C@H]1[C@H](O[C@@H]2O[C@H](CO)[C@@H](O)[C@H](O)[C@H]2O)OC=C2C(=O)OCC[C@]21O [Swertiamarin] | -0.0564

Row | SMILES | log
21 | COC(=O)[C@@H](Cc1ccc(O)c(O)c1)OC(=O)/C=C/c1ccc(O)c(O)c1 [Methyl rosmarinate] | 0.0193
22 | C=C(CC[C@@H]1OC1(C)C)[C@H]1CC[C@]2(C)[C@@H]1CC[C@@H]1[C@@]3(C)CCC(=O)C(C)(C)[C@@H]3CC[C@]12C [24,25-Epoxy-dammar-20(21)-en-3-one] | -0.0428
23 | COc1cc(C[C@H]2CO[C@H](c3ccc(O)c(OC)c3)[C@H]2CO)ccc1O [(+)-Lariciresinol] | -0.282
24 | O[C@H]1CCN2Cc3ccccc3N=C12 [Vasicine] | -0.121
25 | CC[C@H](CC[C@@H](C)[C@H]1CC[C@H]2[C@@H]3C[C@H](O)C4=CC(=O)CC[C@]4(C)[C@H]3CC[C@]12C)C(C)C [6-Hydroxystigmast-4-en-3-one] | -0.0544
26 | CC1=CC[C@@H](OC(=O)c2ccccc2)[C@H]2[C@@]1(C)[C@@H](OC(=O)c1cccnc1)[C@H](OC(=O)c1ccccc1)[C@]1(C)O[C@]3(CC[C@]21C)COC(=O)C3 [Scutebata G] | 0.0607
27 | O=C(CCCCCCCCCCCCCCCCCCCCCCCCCO)OCC(O)CO (stereo not given) [Glycerol 1-(26-hydroxyhexacosanoate)] | -0.253
28 | COc1c(OC(C)=O)ccc(OC(C)=O)c1-c1cc(=O)c2c(OC(C)=O)cc(OC(C)=O)c(OC)c2o1 [Viscidulin III tetraacetate] | -0.177
29 | C=C1CC[C@H]2C(C)(C)[C@@H](OC(C)=O)CC[C@]2(C)[C@H]1CC/C(C)=C/C(=O)O [3-Acetoxy-8(17),13E-labdadien-15-oic acid] | -0.309
30 | COc1cc([C@H]2OC[C@H]3[C@@H]2CO[C@@H]3c2ccc(OC(C)=O)c(OC)c2)ccc1OC(C)=O [(+)-Pinoresinol diacetate] | 0.0724
31 | COc1cc(-c2oc3cc(O)c(OC)c(O)c3c(=O)c2OC)ccc1O [Jaceidin] | 0.0567
32 | CC1(C)[C@H](O)CC[C@@]2(C)C3=C(CC[C@H]12)[C@H]1OC[C@H](O)[C@@]1(C)CC3 (single isomer, unassigned; ent-14) [ent-14,16-Epoxy-8-pimarene-3,15-diol] | -0.594
33 | Oc1cc(O)cc([C@@H]2[C@H](c3ccc(O)cc3O)c3c(O)cc(O)cc3C[C@@H]2c2ccc(O)cc2O)c1 [Alboctalol] | -0.123
34 | COc1c(OC(C)=O)cc(OC(C)=O)c2c(=O)cc(-c3ccccc3)oc12 [5,7-Diacetoxy-8-methoxyflavone] | 0.0322
35 | C=C(C)[C@@H]1CC[C@]2(C)CC[C@]3(C)[C@H](CC[C@@H]4[C@@]5(C)CCC(=O)C(C)(C)[C@@H]5CC[C@]43C)[C@@H]12 [Lupenone] | -0.0329
36 | CC1(C)CC[C@]2(C(=O)O)CC[C@]3(C)C(=CC[C@@H]4[C@@]5(C)CC[C@@H](O)[C@](C)(CO)[C@@H]5CC[C@]43C)[C@@H]2C1 [Scutellaric acid] | -0.0378
37 | O=C1c2c(O)cc(O)cc2O[C@H](c2c(O)cccc2O)[C@H]1O [2',3,5,6',7-Pentahydroxyflavanone] | -0.193
38 | C/C=C/c1ccc2c(c1)[C@H](C)[C@@H](c1ccc(O)cc1)O2 [(+)-Conocarpan] | -0.157
39 | COc1cc2ccc(=O)oc2cc1O [Scopoletin] | -0.0863
40 | CCCCCCCCC/C=C/CCC[C@@H](O)[C@@H](O)[C@H](CO)NC(=O)[C@H](O)CCCCCCCCCCCCCCCCCCCCCC [Gynuramide II] | -0.0825

From entry 37 as far as 39, as listed above:
Row | SMILES | log
37 | O=C1c2c(O)cc(O)cc2O[C@H](c2c(O)cccc2O)[C@H]1O [2',3,5,6',7-Pentahydroxyflavanone] | -0.193
38 | C/C=C/c1ccc2c(c1)[C@H](C)[C@@H](c1ccc(O)cc1)O2 [(+)-Conocarpan] | -0.157
39 | COc1cc2ccc(=O)oc2cc1O [Scopoletin] | -0.0863
